At least one compound was matched to its structure with a doubt left.
Columns and labels:
[1] = molecular target: T1, rat ATB^0,+ (Rattus norvegicus, UniProt Q334I2); experiment: Substrate-induced inward currents in Xenopus oocytes expressing rat ATB0,+ (voltage clamp); type: cell-based; details: 5 mM
T1 sequence (Q334I2 1-640): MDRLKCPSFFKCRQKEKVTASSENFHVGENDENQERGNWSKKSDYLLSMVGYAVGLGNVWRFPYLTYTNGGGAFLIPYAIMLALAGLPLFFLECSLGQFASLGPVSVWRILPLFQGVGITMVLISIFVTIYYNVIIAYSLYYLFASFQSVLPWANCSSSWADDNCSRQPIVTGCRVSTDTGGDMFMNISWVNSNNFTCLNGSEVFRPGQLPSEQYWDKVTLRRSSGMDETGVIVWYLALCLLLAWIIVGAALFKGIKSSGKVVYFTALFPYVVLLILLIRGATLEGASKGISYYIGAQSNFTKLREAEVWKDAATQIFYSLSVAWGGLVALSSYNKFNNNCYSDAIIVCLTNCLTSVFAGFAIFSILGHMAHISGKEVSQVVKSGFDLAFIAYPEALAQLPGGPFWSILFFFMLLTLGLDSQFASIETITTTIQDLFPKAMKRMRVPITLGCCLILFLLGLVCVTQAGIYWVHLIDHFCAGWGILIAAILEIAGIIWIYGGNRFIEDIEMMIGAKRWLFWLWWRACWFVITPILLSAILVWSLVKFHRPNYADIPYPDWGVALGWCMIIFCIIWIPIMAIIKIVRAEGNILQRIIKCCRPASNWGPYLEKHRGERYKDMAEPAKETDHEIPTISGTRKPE
Description: Experiments with HRPE cells were repeated at least three times with three independent transfections and transport measurements made in duplicate in each experiment. Electrophysiological measurements of substrate-induced currents were repeated at least three times with separate oocytes. The data are presented as means±S.E.M. of these replicates. The kinetic parameters, Michaelis constant (Kt) and maximal velocity (Vmax) were calculated by fitting the ATB^0,+-specific transport data to the Michaelis-Menten equation describing a single saturable transport system. Na^+ and Cl^−-activation kinetics were analyzed by fitting the ATB^0,+-specific transport data to the Hill equation for the determination of K0.5 values for Na^+ and Cl^− (concentration of Na^+ and Cl^− necessary for half-maximal activation) and the Hill coefficient (nH; the number of Na^+ or Cl^− ions involved in the activation process). The kinetics parameters were first determined by non-linear regression methods and subsequently confirmed by linear regression methods using the commercially-available computer program SigmaPlot, version 6.0 (SPSS Inc., Chicago, Ill., US).
Therefore, it was necessary to determine whether or not the α-carboxyl esters of neutral amino acids are transportable substrates for ATB^0,+. For this purpose, we used the X. laevis oocyte expression system. […]

[2] = molecular target: T2, human SLC5A8 (Homo sapiens, UniProt Q8N695, F251V/V193I); experiment: Uptake of radiolabeled short-chain fatty acids in Xenopus oocytes injected with SLC5A8 cRNA; type: cell-based; details: 1 h incubation; for Uptake, cRNA-injected oocytes: SLC5A8 cRNA-injected oocytes; for Uptake, uninjected oocytes: uninjected control oocytes
T2 construct: We amplified the coding region of SLC5A8 mRNA by RT-PCR using human intestinal mRNA as the template; expressed in transfected cells; host or cells: Xenopus laevis oocytes, 50 ng capped cRNA from the pGH19 construct
T2 sequence (Q8N695 1-610 V193I/F251V): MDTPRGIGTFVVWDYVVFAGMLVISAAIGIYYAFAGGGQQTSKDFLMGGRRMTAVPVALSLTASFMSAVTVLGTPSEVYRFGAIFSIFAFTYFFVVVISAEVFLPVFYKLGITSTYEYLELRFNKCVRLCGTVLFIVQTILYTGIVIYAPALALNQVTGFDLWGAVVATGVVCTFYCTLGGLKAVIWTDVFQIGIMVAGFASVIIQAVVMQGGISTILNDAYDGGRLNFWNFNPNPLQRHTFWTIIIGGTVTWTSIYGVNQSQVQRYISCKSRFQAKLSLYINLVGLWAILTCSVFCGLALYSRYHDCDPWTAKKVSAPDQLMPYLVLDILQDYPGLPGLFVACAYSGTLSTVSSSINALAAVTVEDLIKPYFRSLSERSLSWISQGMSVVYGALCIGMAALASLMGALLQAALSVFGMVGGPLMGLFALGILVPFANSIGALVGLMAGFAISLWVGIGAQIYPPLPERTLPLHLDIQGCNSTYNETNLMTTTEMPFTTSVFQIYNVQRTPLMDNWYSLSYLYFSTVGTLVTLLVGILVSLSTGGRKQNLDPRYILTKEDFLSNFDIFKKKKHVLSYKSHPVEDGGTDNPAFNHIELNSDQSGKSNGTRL
Description: (§1) The amplified human SLC5A8 cDNA was expressed heterologously in Xenopus oocytes by cRNA injection. Capped cRNA from SLC5A8 cDNA was synthesized using the mMESSAGE mMACHINE kit (Ambion Inc., Austin, Tex.). Mature oocytes (stage 1V or V) from Xenopus laevis were injected with 50 ng cRNA. Uninjected oocytes served as controls. The oocytes were used for uptake and electrophysiological studies 3-6 days after cRNA injection. Uptake of radiolabeled substrates in uninjected and cRNA-injected oocytes was determined as described previously (Fei, Y. J., et al., (1995) Biochemistry 34, 8744-8751).
(§2) Eight oocytes were used for each uptake measurement. Electrophysiological studies were performed by the two-microelectrode voltage clamp method (11. Wang, H., Fei, et al., (2000) Am. J. Physiol. 278:C1019-C1030; Inoue, K, et al. (2004) Biochem. J. 378:949-957).
Uptake of short-chain fatty acids in uninjected oocytes and in oocytes injected with SLC5A8 cRNA was measured with 1 h incubation. Concentration of substrates (labeled plus unlabeled) varied in the range of 50-500 μM depending on the specific radioactivity of the substrates. Eight oocytes were used for each uptake measurement. Data represent means±SE.

[3] = molecular target: T2, human SLC5A8; experiment: Two-microelectrode voltage clamp of substrate-induced currents in SLC5A8-expressing oocytes; type: cell-based; details: for Relative magnitude of substrate-induced currents: 5 mM, -50 mV
Description: as §1, §2
Oocytes were perfused with a NaCl-containing buffer (100 mM NaCl, 2 mM KCl, 1 mM MgCl2, 1 mM CaCl2, 3 mM Hepes, 3 mM Mes, and 3 mM Tris, pH 7.5), followed by the same buffer containing different fatty acids. The membrane potential was clamped at −50 mV. The differences between the steady-state currents measured in the presence and absence of substrates were considered as the substrate-induced currents. To investigate the current-membrane potential (I—V) relationship, step changes in membrane potential were applied, each for a duration of 100 ms in 20-mV increments. The kinetic parameter K0.5 (i.e. the substrate concentration necessary for the induction of half-maxima) current) was calculated by fitting the values of the substrate-induced currents to Michaelis-Menten equation. The Na^+-activation kinetics was analyzed by measuring the substrate-specific currents in the presence of increasing concentrations of Na^+. The data were analyzed by the Hill equation to determine the Hill coefficient (h; the number of Na^+ ions involved in the activation process). The kinetic parameters were determined using the computer program Sigma Plot, version 6.0 (SPSS, Inc., Chicago, Ill.). […]

[4] = test system: HMEC, HBL100, and MCF10A; experiment: Apoptosis in non-transformed mammary epithelial cell lines (FACS, sub-G1); type: cell-based, human; details: normal mammary epithelial cells expressing SMCT1
Description: (§3) Cell cycle analysis: Cells were fixed in 50% ethanol, treated with 0.1% sodium citrate, 1 mg/ml RNase A, and 50 μg/ml propidium iodide, and subjected to FACS (Becton Dickinson FacsCaliber) analysis. Cells with DNA content below Cl were scored as apoptotic population.

[5] = test system: MCF7, T47D, and ZR75.1; experiment: Apoptosis in breast tumor cell lines (FACS, sub-G1); type: cell-based, human
Description: as §3

[6] = test system: SMCT1 and C/EBPδ expression; experiment: Induction of SMCT1 and C/EBPδ expression in MCF7 cells (RT-PCR); type: cell-based, human; details: NaB 5 mM, TSA 1 μM, MAA 5 mM, VPA 2 mM, 18 or 24 h
Description: RT-PCR: Two μg of RNA was reverse transcribed using the Gene Amp PCR system (Roche) according to the manufacturer's instructions. Amplification of cDNA corresponding to mouse [NT] (sense) (SEQ ID NO:9), [NT] (anti-sense) (SEQ ID NO: 10)], mouse [NT] (sense) (SEQ ID NO:11), [NT] (anti-sense) (SEQ ID NO:12)], human [NT] (sense) (SEQ ID NO:13), [NT] (anti-sense) (SEQ ID NO:14)], and human C/EBPδ [[NT] (sense) (SEQ ID NO:15), [NT] (anti-sense) (SEQ ID NO:16)] was carried out using HPRT1 (hypoxanthine guanine phosphoribosyl transferase 1) as an internal control.

[7] = test system: HDAC; experiment: HDAC activity in a cell-free system with MCF7 cell lysate; type: biochemical, human; details: read-out: IC50 for HDAC inhibition
Description: Measurement of HDAC activity in a cell-free system: This was done using a commercially available assay kit (BioVision). MCF7 cell lysate was used as a source of HDAC activity. 50 μg of lysate protein was incubated with various monocarboxylates (1 mM), or trichostatin A (20 μM), and the reaction was initiated by the addition of HDAC substrate. The reaction was then terminated and the deacetylated product was measured according to the manufacturer's instructions. The activity is expressed in nmoles of deacetylated product formed per μg of MCF7 cell lysate protein per 30 min.

[8] = test system: MCF7 cells transfected with SMCT1 cDNA; experiment: Colony formation assay in MCF7 cells transfected with SMCT1 cDNA; type: cell-based, human; details: SMCT1-expressing MCF7 cells

## CCCC(=O)O [butyrate]
[1]
  Inward currents induced in ATB0,+-expressing oocytes (in words): did not induce detectable current
[2]
  Uptake, cRNA-injected oocytes: 0.116 ± 0.007
  Uptake, uninjected oocytes: 0.029 ± 0.001
[3]
  Relative magnitude of substrate-induced currents: intermediate
[3]; Na+ 100 mM, four oocytes
  K0.5 for SLC5A8: 81 ± 17 µM
[4]
  Induction of apoptosis: does not induce apoptosis
[5]
  Induction of apoptosis: cause apoptosis specifically in tumor cell lines
[6]
  Induction of SMCT1 and C/EBPδ expression: induce the expression of both genes

## CC(=O)C(=O)O [pyruvate]
[2]
  Fold increase of uptake (cRNA-injected over uninjected): 17.4 fold
  Uptake, cRNA-injected oocytes: 2.622 ± 0.075
  Uptake, uninjected oocytes: 0.151 ± 0.017
[3]
  Relative magnitude of substrate-induced currents: maximal
[7]
  IC50: ~80 µM
[8]
  Effect on cell growth / apoptosis: induce apoptosis
[4]
  Induction of apoptosis: does not induce apoptosis
